## Percent effect of library compounds

Results are given as percent effect. How 0% and 100% were set is not recorded. Most values in the screen are low, and negative values occur. Compounds were drawn at random from those tested, without regard to their results.

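Whole-parasite assay of Trypanosoma brucei over 72 hours; the read-out is not stated. Tested at 10 µM. Direction is inferred from retests: higher values go with stronger inhibition. Values scatter widely below zero; nearly all retest evidence comes from the higher of the two concentrations used. Size under these conditions: about 2,700 compounds, about 14 of them at 50% or above in at least one test.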

| structure | effect |
|---|---|
| `CC(C)(C)c1nc(CN2CCCN(Cc3cccs3)CC2)no1` | -54.77% |
| `Cc1cc(C(=O)NCc2ccnc(N3CCN(C)CC3)c2)sc1C` | -71.43% |
| `O=C(CCc1ccccc1F)NS(=O)(=O)c1ccc2c(c1)OCCO2` | -49.9% |
| `O=C(Cc1ccc(F)c(Br)c1)N1CCN(CCO)CC1` | -15.11% |
| `CCN(CC)S(=O)(=O)N(C)Cc1ccc2c(c1)OCCO2` | -29.2% |
| `CC(C)C(C)NC(=O)c1cc(Br)c2c(c1)OCCO2` (centres unmarked) | -13.25% |
| `Cc1nc(C)n(CC2CCCN2Cc2nc3ccccc3s2)n1` (centres unmarked) | -46.83% |
| `Cc1cnn(CC2CCCCN2CCS(C)(=O)=O)c1` (centres unmarked) | -30.66% |
| `NC(=O)CC1CCN(C(=O)c2cccn2Cc2cccs2)CC1` | -42.07% |
| `O=C(CCOc1cccc(F)c1)N1CCCC(n2cccn2)C1` (centres unmarked) | -37.84% |
| `COCc1ccccc1CNCc1c(C(C)C)nn(C)c1N(C)C` | -17.78% |
| `CC(Oc1ccccc1)C(=O)N1CCCN(Cc2cscn2)CC1` (centres unmarked) | -32.59% |
| `Cc1cnn(CC2CCCCN2C(=O)Cc2cccc(F)c2)c1` (centres unmarked) | -32.82% |
| `COCc1nc(C(=O)N2CCCC2c2cccs2)cs1` (centres unmarked) | 0.03117% |
| `CCc1n[nH]c(C2CN(Cc3nnc(C4CCC4)o3)CCO2)n1` (centres unmarked) | -12.34% |
| `Cc1cnc(C(=O)N2CCCN(c3nc(C)cs3)CC2)cn1` | -16.99% |
| `Cc1cnn(CC2CCCCN2C(=O)c2ccc3[nH]cnc3c2)c1` (centres unmarked) | -2.954% |
| `COC(=O)c1cccc(S(=O)(=O)NCc2cccnc2N(C)C)c1` | -0.9063% |
| `CC(Cc1cccs1)NC(=O)CCn1cccn1` (centres unmarked) | -28.14% |
| `NC(=O)CN1CCCN(C(=O)Cc2ccc(F)cc2)CC1` | -16.79% |
| `Cc1cnn(CC(C)NCc2ccc(OCc3noc(C)n3)cc2)c1` (centres unmarked) | -0.2182% |
| `CCn1cc(CN2CCCN(C(=O)c3ccco3)CC2)cn1` | -40.15% |
| `CCCc1nc(CN2CCCC2c2cnn(C)c2)cs1` (centres unmarked) | -46.91% |
| `Cn1ccc(C(=O)NCc2ccccc2CN2CCCCC2)cc1=O` | -66.88% |
| `c1cncc(-c2noc(CNC3CCc4ncnn4C3)n2)c1` (centres unmarked) | -40.97% |
| `O=C(O)c1c[nH]c2cc(NS(=O)(=O)c3cc(F)ccc3Cl)ccc12` | -56.97% |
| `CCc1noc(CN(Cc2cccs2)CC2CCCO2)n1` (centres unmarked) | -19.85% |
| `Cc1nnc(NC(=O)NCc2ccoc2)s1` | -56.54% |
| `CC(C)c1ccc(C(O)CN2CCN(Cc3nccn3C)CC2)cc1` (centres unmarked) | -29.64% |
| `Clc1ccccc1-c1nnc(CN2CCCC2Cn2cncn2)o1` (centres unmarked) | -20.71% |
| `OCCN1CCC(CNCc2ccccc2OC(F)(F)F)CC1` | -31.23% |
| `Cc1cc(CN2CCN(CC(O)c3cccc(F)c3)CC2)no1` (centres unmarked) | 1.1% |
| `CCc1noc(C)c1C(=O)N1CCCC1c1c(C)nn(C)c1C` (centres unmarked) | -4.789% |
| `Cn1c(CN2CCOC(CNc3cccnn3)C2)nnc1C1CC1` (centres unmarked) | -35.98% |
| `Cc1n[nH]c(C2CN(C(=O)c3cc4c(s3)CCC4)CCO2)n1` (centres unmarked) | -15.35% |
| `CCc1nc(CC(=O)N2CCCCC2Cn2cccn2)cs1` (centres unmarked) | 0.5382% |
| `CCn1ccnc1CN1CCCN(C(=O)Cc2ccc(C)cc2)CC1` | -25.38% |
| `Cc1ccsc1CNC(=O)N(C)Cc1cnn(C)c1` | 23.08% |
| `Brc1ccccc1-c1nnc(CNCCn2cccn2)o1` | 14.52% |
| `CC(C)C(CNC(=O)Nc1cn[nH]c1)N1CCOCC1` (centres unmarked) | -26.14% |
| `Cc1cc(C)n(CC2CCCN2C(=O)c2ccc3nnc(C)n3c2)n1` (centres unmarked) | -55.01% |
| `Cc1nc(C(C)C)sc1C(=O)NCCn1nc2ccccn2c1=O` | -38.48% |
| `CCc1ccc(C(=O)N2CCC(Nc3ccc(C)nn3)CC2)o1` | -11.82% |
| `CC(=O)Nc1nc(CN2CCOC(Cn3nc(C)cc3C)C2)cs1` (centres unmarked) | -83.08% |
| `CC(=O)c1cccc(OCC(=O)NS(=O)(=O)c2ccc(Br)s2)c1` | -2.127% |
| `NC(=O)c1cc(C2CCCN(C(=O)CCc3cccs3)C2)n[nH]1` (centres unmarked) | -57.76% |
| `COc1ccc(C(=O)N2CCCC(n3cc(C)cn3)C2)c(F)c1` (centres unmarked) | -16.88% |
| `CN(Cc1ccsc1)C(=O)c1ccc(S(=O)(=O)NC(C)(C)C)cc1` | -41.29% |
| `CC(C)c1nc2c(n1C)CCN(CC(=O)Nc1cccnc1)C2` | -48.65% |
| `COc1ncccc1C(=O)N1CCCC1c1c(C)nn(C)c1Cl` (centres unmarked) | -25.93% |
| `CCn1ccnc1CN1CCCN(C(=O)Cc2ccccc2C)CC1` | -24.72% |
| `Cn1ccc(CN2CCC(CN3CCOCC3)CC2)cc1=O` | -45.49% |
| `CC1CN(CCc2ccccn2)CCN1c1ccc2nncn2n1` (centres unmarked) | -27.11% |
| `Cc1cnn(CC2CCCN2Cc2noc(C)n2)c1` (centres unmarked) | -13.93% |
| `Cc1nc(CN(C)C2CCN(CCCOc3ccc(F)cc3)C2)no1` (centres unmarked) | -49.52% |
| `CCOc1ccc(C(=O)N2CCCS2(=O)=O)cc1OC` | -27.94% |

The last 7 entries again:

* COc1ncccc1C(=O)N1CCCC1c1c(C)nn(C)c1Cl (centres unmarked) : -25.93%
* CCn1ccnc1CN1CCCN(C(=O)Cc2ccccc2C)CC1 : -24.72%
* Cn1ccc(CN2CCC(CN3CCOCC3)CC2)cc1=O : -45.49%
* CC1CN(CCc2ccccn2)CCN1c1ccc2nncn2n1 (centres unmarked) : -27.11%
* Cc1cnn(CC2CCCN2Cc2noc(C)n2)c1 (centres unmarked) : -13.93%
* Cc1nc(CN(C)C2CCN(CCCOc3ccc(F)cc3)C2)no1 (centres unmarked) : -49.52%
* CCOc1ccc(C(=O)N2CCCS2(=O)=O)cc1OC : -27.94%

From ChEMBL document CHEMBL3988442, “University of Dundee, Small-Polar-MMV Screening Library” (2021).